Record: PubChem BioAssay AID1259308 (NCATS, 2017)
Here is an unselected part of about 59,000 reagents. Over the whole deposit, about 1,510 (2.6%) are marked active. 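Calls use total luciferase alone and ignore viability, so some active siRNAs may act by altering cell number.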

- Assay: 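Knock-downs that increase output of a recombinant reporter protein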 (primary screen)
- System: human HEK293 embryonic kidney cells stably expressing firefly luciferase (HEK-CMV-Luc2-Hygro)
- Reagents: single siRNA against human genes, 0.8 pmol siRNA per well
- Timing: 72 h
- Measured: 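Reporter luminescence and viable-cell signal on separate replicate plates, given as percent of non-targeting control and median/MAD z-scores, plus per-cell luciferase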
- Scale: total luciferase, z-score and total luciferase, % of control: higher = more reporter protein produced; luciferase per cell, z-score: higher = more reporter output per viable cell; viable cells, % of control: higher = more viable cells
- Hit rule: 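An siRNA counts as active if its total luciferase robust z-score exceeds 3; genes with two or more such siRNAs out of three were retested with fresh siRNAs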
- Meaning of the calls: active = raised luciferase; inactive = no rise

gene symbol | PubChem SID | total luciferase, z-score | total luciferase, % of control | luciferase per cell, z-score | viable cells, % of control | outcome
HEXB (hexosaminidase subunit beta) | SID160731059 | -1.43 | 53.4 | -1.53 | 89.4 | inactive
HEXB (hexosaminidase subunit beta) | SID160774916 | -1.11 | 59.9 | -1.7 | 105 | inactive
HEXB (hexosaminidase subunit beta) | SID160774917 | 0.588 | 93.6 | 0.31 | 96.4 | inactive
RAG2 (recombination activating 2) | SID160715620 | -1.38 | 54.5 | -0.841 | 76 | inactive
RAG2 (recombination activating 2) | SID160715621 | -0.328 | 75.4 | 0.171 | 80.5 | inactive
RAG2 (recombination activating 2) | SID160715622 | -0.137 | 79.2 | -0.516 | 101 | inactive
BRME1 (break repair meiotic recombinase recruitment factor 1) | SID160748748 | 0.674 | 95.3 | 0.00487 | 106 | inactive
BRME1 (break repair meiotic recombinase recruitment factor 1) | SID160748749 | 0.267 | 87.2 | 0.106 | 94.8 | inactive
BRME1 (break repair meiotic recombinase recruitment factor 1) | SID160748750 | 0.289 | 87.6 | -0.39 | 109 | inactive
PCSK1 (proprotein convertase subtilisin/kexin type 1) | SID160713941 | -0.0537 | 80.8 | -0.331 | 98.5 | inactive
PCSK1 (proprotein convertase subtilisin/kexin type 1) | SID160713942 | -0.362 | 74.7 | -0.959 | 107 | inactive
PCSK1 (proprotein convertase subtilisin/kexin type 1) | SID160713943 | -0.253 | 76.8 | -1.13 | 116 | inactive
TM4SF4 (transmembrane 4 L six family member 4) | SID160718148 | -1.37 | 54.5 | -0.271 | 65.5 | inactive
TM4SF4 (transmembrane 4 L six family member 4) | SID160718150 | -0.264 | 76.6 | 0.104 | 83.3 | inactive
TM4SF4 (transmembrane 4 L six family member 4) | SID160718151 | -1.56 | 50.9 | -1.22 | 78.3 | inactive
FBXO21 (F-box protein 21) | SID160735062 | 0.181 | 85.5 | 1.1 | 71.4 | inactive
FBXO21 (F-box protein 21) | SID160735070 | -0.343 | 75.1 | -0.4 | 93.2 | inactive
FBXO21 (F-box protein 21) | SID160735078 | -0.0979 | 79.9 | -0.102 | 91.8 | inactive
RPL27A (ribosomal protein L27a) | SID160716083 | -2.22 | 37.7 | -0.29 | 45.5 | inactive
RPL27A (ribosomal protein L27a) | SID160716084 | -2.31 | 36 | 0.512 | 35.2 | inactive
RPL27A (ribosomal protein L27a) | SID160716085 | -2.53 | 31.6 | -1.23 | 48.8 | inactive
GINM1 (glycosylated integral membrane protein 1) | SID160755384 | 0.572 | 93.3 | 0.115 | 101 | inactive
GINM1 (glycosylated integral membrane protein 1) | SID160755385 | 0.0229 | 82.3 | -0.296 | 99.5 | inactive
GINM1 (glycosylated integral membrane protein 1) | SID160755387 | -0.406 | 73.8 | 0.316 | 75.9 | inactive
LURAP1 (leucine rich adaptor protein 1) | SID160768316 | 0.736 | 96.5 | 1 | 82.8 | inactive
LURAP1 (leucine rich adaptor protein 1) | SID160768318 | -1.78 | 46.6 | -0.993 | 67.6 | inactive
LURAP1 (leucine rich adaptor protein 1) | SID160768319 | -0.0413 | 81.1 | 0.0273 | 89.9 | inactive
MED1 (mediator complex subunit 1) | SID160714712 | -0.755 | 66.9 | -0.784 | 91.9 | inactive
MED1 (mediator complex subunit 1) | SID160714714 | -0.173 | 78.4 | -0.473 | 99.3 | inactive
MED1 (mediator complex subunit 1) | SID160714715 | -2.02 | 41.8 | -1.76 | 74.1 | inactive

Continued (4 carried over from the part before).
gene symbol | PubChem SID | total luciferase, z-score | total luciferase, % of control | luciferase per cell, z-score | viable cells, % of control | outcome
LURAP1 (leucine rich adaptor protein 1) | SID160768319 | -0.0413 | 81.1 | 0.0273 | 89.9 | inactive
MED1 (mediator complex subunit 1) | SID160714712 | -0.755 | 66.9 | -0.784 | 91.9 | inactive
MED1 (mediator complex subunit 1) | SID160714714 | -0.173 | 78.4 | -0.473 | 99.3 | inactive
MED1 (mediator complex subunit 1) | SID160714715 | -2.02 | 41.8 | -1.76 | 74.1 | inactive
SUPV3L1 (Suv3 like RNA helicase) | SID160717548 | -0.386 | 74.2 | 0.265 | 77.3 | inactive
SUPV3L1 (Suv3 like RNA helicase) | SID160717549 | 0.106 | 84 | -0.229 | 99.7 | inactive
SUPV3L1 (Suv3 like RNA helicase) | SID160717550 | -1.15 | 58.9 | -1.56 | 99.2 | inactive
SIX5 (SIX homeobox 5) | SID160758589 | 2.06 | 123 | 1.36 | 95.9 | inactive
SIX5 (SIX homeobox 5) | SID160758590 | 1.29 | 107 | 1.24 | 86.6 | inactive
SIX5 (SIX homeobox 5) | SID160758591 | 0.54 | 92.6 | 0.0884 | 101 | inactive
HSH2D (hematopoietic SH2 domain containing) | SID160752999 | -1.48 | 52.4 | -1.83 | 94.8 | inactive
HSH2D (hematopoietic SH2 domain containing) | SID160753000 | 1.21 | 106 | 0.425 | 106 | inactive
HSH2D (hematopoietic SH2 domain containing) | SID160753001 | 0.922 | 100 | 1.03 | 85.3 | inactive
NFE2L1 (NFE2 like bZIP transcription factor 1) | SID160778002 | -1.32 | 55.7 | -0.333 | 67.9 | inactive
NFE2L1 (NFE2 like bZIP transcription factor 1) | SID160778003 | 0.434 | 90.5 | 0.406 | 90.9 | inactive
NFE2L1 (NFE2 like bZIP transcription factor 1) | SID160778004 | 0.638 | 94.6 | 1.26 | 75.9 | inactive
GCSAML (germinal center associated signaling and motility like) | SID160758744 | 3.23 | 146 | 2.41 | 86.6 | active
GCSAML (germinal center associated signaling and motility like) | SID160758745 | -0.873 | 64.5 | 1.91 | 43.6 | inactive
GCSAML (germinal center associated signaling and motility like) | SID160758746 | -0.563 | 70.7 | 0.0169 | 78.6 | inactive
LCE2B (late cornified envelope 2B) | SID160732862 | -1.66 | 48.8 | -2.36 | 101 | inactive
LCE2B (late cornified envelope 2B) | SID160737815 | 1.12 | 104 | 0.914 | 91.5 | inactive
LCE2B (late cornified envelope 2B) | SID160737816 | -0.153 | 78.8 | -0.35 | 96.6 | inactive
FKBP9 (FKBP prolyl isomerase 9) | SID160730635 | 0.0871 | 83.6 | 0.783 | 76 | inactive
FKBP9 (FKBP prolyl isomerase 9) | SID160730644 | 1.27 | 107 | 1.11 | 89.4 | inactive
FKBP9 (FKBP prolyl isomerase 9) | SID160730655 | 0.0899 | 83.7 | 0.456 | 82.9 | inactive
DGKI (diacylglycerol kinase iota) | SID160721626 | 1.1 | 104 | 1.35 | 81.2 | inactive
DGKI (diacylglycerol kinase iota) | SID160721627 | 1.6 | 114 | 1.97 | 75.7 | inactive
DGKI (diacylglycerol kinase iota) | SID160721628 | -0.865 | 64.7 | -0.6 | 84.6 | inactive
TBXA2R (thromboxane A2 receptor) | SID160717763 | 0.799 | 97.8 | 0.594 | 93.4 | inactive
TBXA2R (thromboxane A2 receptor) | SID160717764 | 0.366 | 89.2 | 0.372 | 90.3 | inactive
TBXA2R (thromboxane A2 receptor) | SID160717765 | -1.67 | 48.6 | -1.65 | 83.8 | inactive
